For some assays here: At least one read-out could not be matched to a standard name with certainty. For some assays here: For at least one compound, name, drawing or mass did not settle the structure.
Assays:
[1] = Single oral dose safety and pharmacokinetic study in NASH and healthy subjects; format: in vivo, human
Method: The present Example was a randomized, dose ranging, single dose safety and pharmacokinetic study of 25HC3S administered to subjects with NASH and control healthy subjects. […] For each cohort, 10 subjects with NASH were enrolled which were further classified into cirrhotic and non-cirrhotic. Each subject received only one dose of study treatment. The second cohort was dosed after a review of safety and tolerability data from Cohort 1.

[2] = Plasma pharmacokinetics of radioactivity after single oral (gavage) dose; format: in vivo, rats; conditions: 75 mg/kg single oral (gavage)
[3] = Tissue distribution by quantitative whole body autoradiography after single oral (gavage) dose; format: in vivo, male Sprague Dawley rats; conditions: 75 mg/kg oral
[4] = Tissue distribution by quantitative whole body autoradiography after single intravenous dose; format: in vivo, male Sprague Dawley rats; conditions: 10 mg/kg intravenous
Text: The objectives of this study were to determine the plasma pharmacokinetics of [4-^14C]-25HC3S-derived radioactivity in male Sprague Dawley rats, determine the routes of elimination and excretion mass balance of [4-^14C]-25HC3S-derived radioactivity in male Sprague Dawley rats, determine the tissue distribution and tissue pharmacokinetics of [4-^14C]-25HC3S-derived radioactivity using quantitative whole body autoradiography methods in male Sprague Dawley and Long Evans rats following a single intravenous (bolus) dose, and to provide plasma, urine, and fecal homogenate samples for metabolite profiling of [4-^14C]-25HC3S-derived radioactivity.
Nine male Sprague Dawley rats (Group 1) were designated for the pharmacokinetic phase, 3 male Sprague Dawley rats (Group 2) for the excretion mass balance phase, and 7 male Sprague Dawley rats (Group 3) and 9 male Long Evans rats (Group 4) for the tissue distribution phase. All animals received a single intravenous dose of [^14C]-25HC3S at 10 mg/kg and a target radioactivity of 225 μCi/kg. […] Following blood collection, animals were euthanized by CO2 inhalation and carcasses frozen in a dry ice/hexane bath for processing by quantitative whole body autoradiography. Whole blood, plasma, urine, feces, cage rinse, and cage wash were analyzed for total radioactivity by liquid scintillation counting.

C[C@H](CCCC(C)(C)O)[C@H]1CC[C@H]2[C@@H]3CC=C4C[C@@H](OS(=O)(=O)[O-])CC[C@]4(C)[C@H]3CC[C@]12C.[Na+] [25HC3S sodium]
Vz/F ([1]; 50 mg single oral dose, Healthy, Geometric Mean): 321.95 L | Vz/F ([1]; 50 mg single oral dose, Healthy, Mean): 324.96 L | Vz/F ([1]; 50 mg single oral dose, NASH, Geometric Mean): 198.01 L | Vz/F ([1]; 50 mg single oral dose, NASH, Mean): 203.28 L | Vz/F ([1]; 200 mg single oral dose, Healthy, Geometric Mean): 419.93 L | Vz/F ([1]; 200 mg single oral dose, Healthy, Mean): 434.05 L | Vz/F ([1]; 200 mg single oral dose, NASH, Geometric Mean): 448.71 L | Vz/F ([1]; 200 mg single oral dose, NASH, Mean): 540.23 L

C[C@H](CCCC(C)(C)O)[C@H]1CC[C@H]2[C@@H]3CC=C4C[C@@H](OS(=O)(=O)O)CC[C@]4(C)[C@H]3CC[C@]12C [[^14C]-25HC3S]
plasma Cmax [2]: 3800 ng equiv./g | Cmax in small intestine (wall) [3]: 424,000 ng equiv./g | Cmax in stomach (wall) [3]: 204,000 ng equiv./g | whole blood Cmax [3]: 2850 ng equiv/g

C[C@H](CCCC(C)(C)O)[C@H]1CC[C@H]2[C@@H]3CC=C4[14CH2][C@@H](OS(=O)(=O)O)CC[C@]4(C)[C@H]3CC[C@]12C [[4-^14C]-25HC3S]
whole blood Cmax ([4]; Group 3): 8530 ng-equiv/g | Cmax in liver ([4]; radioactivity): up to 87,900 ng-equiv./g
